Experimental data as given in PubChem BioAssay AID1671190 (National Center for Advancing Translational Sciences (NCATS), 2021).
About 6,100 (1.1%) of roughly 580,000 compounds were called active. The inconclusive results got no clear call from the source; some entries with a clear call stand among them for comparison. Calls follow the shape of the dose curve; as a rule, active = well fitted inhibition curve with a large enough effect; inconclusive = small, poorly fitted or top-dose-only effect, or another doubt; inactive = no such curve, though single readings can be large or run the other way. Potencies of inconclusive entries are doubtful fits and often do not repeat.
Potency is read from the fitted curve at half-maximal effect.

Sequences of proteins named here, by UniProt entry; tags and fusion partners are left off.
UniProt P18054, whole entry, looked up: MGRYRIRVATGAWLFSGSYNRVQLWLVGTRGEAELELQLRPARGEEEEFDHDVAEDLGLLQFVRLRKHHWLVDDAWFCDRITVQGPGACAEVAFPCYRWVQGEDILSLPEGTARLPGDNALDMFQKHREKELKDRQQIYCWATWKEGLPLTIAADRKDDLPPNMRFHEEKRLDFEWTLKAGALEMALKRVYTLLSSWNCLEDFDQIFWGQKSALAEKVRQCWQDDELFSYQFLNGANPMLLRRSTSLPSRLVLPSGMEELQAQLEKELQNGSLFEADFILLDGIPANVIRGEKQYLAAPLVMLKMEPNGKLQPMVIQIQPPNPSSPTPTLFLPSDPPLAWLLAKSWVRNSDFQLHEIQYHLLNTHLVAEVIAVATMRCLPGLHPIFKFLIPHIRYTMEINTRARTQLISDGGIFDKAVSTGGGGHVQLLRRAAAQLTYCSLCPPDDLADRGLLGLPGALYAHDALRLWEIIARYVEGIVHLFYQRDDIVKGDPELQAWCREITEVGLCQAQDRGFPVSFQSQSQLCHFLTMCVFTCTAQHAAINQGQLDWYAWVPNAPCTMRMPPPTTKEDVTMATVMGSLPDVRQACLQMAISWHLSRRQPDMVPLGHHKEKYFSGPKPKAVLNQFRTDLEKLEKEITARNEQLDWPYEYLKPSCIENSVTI

What follows are compounds tested against Polyunsaturated fatty acid lipoxygenase ALOX12 (Homo sapiens) (UniProt P18054) (assay: Primary qHTS assay for inhibitors of human arachidonate 12S-lipoxygenase (ALOX12): Round 2). Settings: purified 12hLO, xylenol orange hydroperoxide absorbance; series mostly up to 108 µM.
Method in brief: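 Purified human 12hLO (150 nM final) in 25 mM Hepes, 0.01% Triton X-100, pH 7.0 was preincubated 15 min at room temperature with compound. Then 40 uM arachidonic acid was added, 30 min. Hydroperoxide was read by Fe-XO absorbance ratio 573/405 nm.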
COc1ccc(C(=O)OCC2CC(c3ccccc3)=NO2)cc1OC (stereo not given) was tested, and the Potency was “inactive”.
COc1cc(NC(=C(C#N)C#N)C(F)(F)C(F)(F)F)cc(OC)c1 was tested, and the Potency was inconclusive: 7.94 µM [inhibitor, full curve].
In the case of O=C(NC(=S)Nc1nc(-c2ccccc2)cs1)c1cccnc1, the Potency is reported as active: 35.5 µM.
With COc1ccc(-c2cc(C(F)(F)F)nc(SCC(=O)Nc3sc4c(c3C#N)CCC4)n2)cc1 the Potency was inconclusive: 44.7 µM [inhibitor, partial curve, poor fit].
In the case of CN1CCN(C(=S)Nc2ccc(Cl)cc2)CC1, the Potency is reported as “inactive”.
With C=CCn1c(N2CCCC2)nc2c1c(=O)n(C)c(=O)n2C the Potency was inconclusive: 39.8 µM [inhibitor, partial curve, poor fit].
In the case of O=C(Cc1ccc(Br)cc1)N1CCN(c2ccccc2O)CC1, the Potency is reported as inconclusive: 56.2 µM [inhibitor, partial curve, poor fit].
For CC(C)NC(=O)CC1(C(=O)NCc2ccccc2)CCCC1, the Potency was inconclusive: 63.1 µM [inhibitor, partial curve, poor fit].
N#CC1=C(N)OC(c2ccccc2)=C(C(=O)c2ccccc2)C1c1ccccc1 (stereo not given) was tested, and the Potency was inconclusive: 2.51 µM [inhibitor, full curve].
For Cc1ccc(-c2ccc(/C=C(\C#N)c3nc4ccccc4[nH]3)o2)c(Br)c1, the Potency was “inactive”.
With COc1ccc(NC(=O)CCS(=O)(=O)c2nc(-c3cccs3)cc(C(F)(F)F)n2)cc1OC the Potency was inconclusive: 112 µM [inhibitor, partial curve, poor fit].
With O=C(CN1CCN(c2ccc(F)cc2)CC1)N1N=C(c2cc3ccccc3o2)CC1c1ccco1 (stereo not given) the Potency was inconclusive: 50.1 µM [inhibitor, partial curve].
In the case of Oc1ccc(Cl)cc1-c1cc(C(F)(F)C(F)F)nc(-c2ccccc2)n1, the Potency is reported as “inactive”.
With CCOC(=O)C1C(=O)NC(N2CCCCC2)=NC1C(C)C (stereo not given) the Potency was inconclusive: 44.7 µM [inhibitor, partial curve, poor fit].
CCN1C(c2ccccc2)=C(c2ccccc2)S/C1=C\C=C1/SC(=S)N(C)C1=O was tested, and the Potency was “inactive”.
COc1ccc(C(=O)C[N+]2(C)CCOCC2)cc1 was tested, and the Potency was inconclusive: 44.7 µM [inhibitor, partial curve, poor fit].
For CCOC(=O)CON1C(=O)C(C)(C)N(OCC(=O)OCC)C(=O)C1(C)C, the Potency was inconclusive: 112 µM [inhibitor, single point].
For O=C(c1noc2c1CCCCC2)N1CCN(c2ccc(Cl)cc2)CC1, the Potency was inconclusive: 50.1 µM [inhibitor, partial curve, poor fit].
For O=C(c1ccco1)N1N=C(c2ccc(Cl)cc2)CC1c1ccco1 (stereo not given), the Potency was inconclusive: 50.1 µM [inhibitor, partial curve, poor fit].
With Cc1ccc2c(c1)C(=O)C(=O)N2CC1COc2ccccc2O1 (stereo not given) the Potency was “inactive”.
With COc1ccccc1NC(=O)Cn1c(=O)n(Cc2ccc3c(c2)OCO3)c(=O)c2oc3ccccc3c21 the Potency was inconclusive: 100 µM [inhibitor, partial curve, poor fit].
For COc1cccc(CNC(=O)Cn2cccc2-c2nc(-c3ccc(F)cc3)no2)c1OC, the Potency was inconclusive: 7.08 µM [inhibitor, full curve].
With Oc1ccc(N=Cc2ccc(-c3cccs3)s2)cc1 the Potency was inconclusive: 15.8 µM [inhibitor, partial curve, poor fit].
In the case of CCc1cccc(C)c1NC(=O)CN(C)C1=NS(=O)(=O)c2ccccc21, the Potency is reported as inconclusive: 35.5 µM [inhibitor, single point].
With O=C(CCc1nc2ccccc2c(=O)[nH]1)Nc1nnc(SCc2ccc(F)cc2)s1 the Potency was inconclusive: 89.1 µM [inhibitor, single point].
In the case of CC1(C)C(=O)Nc2ccccc2N1C(=O)COC(=O)c1cc([N+](=O)[O-])ccc1N, the Potency is reported as inconclusive: 22.4 µM [inhibitor, full curve].
O=C(CNCCC1=CCCCC1)Nc1ccccc1N1CCCCC1 was tested, and the Potency was inconclusive: 0.562 µM [inhibitor, full curve, poor fit].
For O=C(O)c1ccc(CNC(=O)c2ccccc2C(F)(F)F)cc1, the Potency was inconclusive: 63.1 µM [inhibitor, partial curve, poor fit].
With COc1ccc(-n2cc(CNCCc3cscn3)c(-c3ccccc3Cl)n2)cc1 the Potency was “inactive”.
With Cc1c(C(=O)OCC(=O)NCc2ccco2)cccc1[N+](=O)[O-] the Potency was inconclusive: 112 µM [inhibitor, single point].
For O=C(NC1CCCCC1)c1cc(Cl)ccc1[N+](=O)[O-], the Potency was “inactive”.
With C=CC[n+]1c(-c2ccc(C)cc2)csc1Nc1c(C)n(C)n(-c2ccccc2)c1=O the Potency was active: 28.2 µM.
With C=CCN1C(=O)CN=C1Nc1ccc(OC)cc1OC the Potency was inconclusive: 5.62 µM [inhibitor, partial curve].
With CN1CCC[C@@H]1CCNC(=O)c1c(-c2ccc3c(c2)OCO3)noc1-c1ccsc1 the Potency was inconclusive: 44.7 µM [inhibitor, partial curve, poor fit].
CC(C)CC(=O)Nc1ccc2oc(-c3ccc(Cl)cc3)nc2c1 was tested, and the Potency was “inactive”.
With Cc1ccc(NC(=O)NCc2ccc3c(c2)CCN3C(=O)c2ccccc2)c(Cl)c1 the Potency was inconclusive: 112 µM [inhibitor, partial curve, poor fit].
For Cc1ccc2c(CSc3nnnn3-c3ccccc3)cc(=O)oc2c1, the Potency was “inactive”.
For COc1ccc(CNC(=O)C(c2ccccc2F)N(C(=O)c2csnn2)C2CC2)cc1 (stereo not given), the Potency was “inactive”.
For NC(=O)Cc1nc(-c2ccc(F)cc2)cs1, the Potency was “inactive”.
Cc1ccc(-c2cc3ccccn3c2)cc1 was tested, and the Potency was inconclusive: 7.94 µM [inhibitor, full curve].
For COc1ccc(C2c3c(oc4ccc(C)cc4c3=O)C(=O)N2CCCN2CCOCC2)cc1OC (stereo not given), the Potency was inconclusive: 1 µM [inhibitor, full curve, poor fit].
In the case of COc1ccc(/C(O)=C2/C(=O)C(=O)N(CCCN3CCOCC3)C2c2ccc(Cl)cc2)cc1 (stereo not given), the Potency is reported as inconclusive: 112 µM [inhibitor, partial curve, poor fit].
CC1=C[C@@H](CNC(=O)CCC(=O)O)[C@H](C(C)C)C[C@H]1Cc1nc2ccc(F)cc2[nH]1 was tested, and the Potency was inconclusive: 25.1 µM [inhibitor, partial curve, poor fit].
In the case of COc1ccc(OC)c(S(=O)(=O)n2nc(C)c(S(=O)(=O)N3CCCC3)c2C)c1, the Potency is reported as inconclusive: 7.94 µM [inhibitor, full curve, poor fit].
With COc1ccccc1OCCOCCN1CCCC1 the Potency was inconclusive: 0.501 µM [inhibitor, full curve, poor fit].
With COc1ccc(-c2ccc(/C=N/N3C(=O)C4C5C=CC(C6CC56)C4C3=O)o2)c([N+](=O)[O-])c1 (stereo not given) the Potency was “inactive”.
Oc1ccc(/C=N/N=C/c2ccc(O)c(O)c2)cc1O was tested, and the Potency was active: 1.12 µM.
O=C(O)C(Sc1nc(-c2ccccc2)cc(C(F)(F)F)n1)c1ccccc1 (stereo not given) was tested, and the Potency was inconclusive: 31.6 µM [inhibitor, partial curve, poor fit].
With CCCNS(=O)(=O)c1cccn1-c1ncc(C(F)(F)F)cc1Cl the Potency was inconclusive: 50.1 µM [inhibitor, partial curve, poor fit].
With CCc1nc2c(OCc3cc(Cl)cc(Cl)c3)cccn2c1N(C=O)Cc1ccccc1 the Potency was inconclusive: 35.5 µM [inhibitor, partial curve, poor fit].
NCCC12CC3CC(C1)CC(C(=O)O)(C3)C2 was tested, and the Potency was inconclusive: 79.4 µM [inhibitor, single point].
For CCCCCCCCC(=O)Nc1c(C)cccc1CC, the Potency was “inactive”.
In the case of O=C(Nc1ccc(Cl)cc1)c1ccc2c(Cl)c3c(nc2c1)CCCC3, the Potency is reported as inconclusive: 100 µM [inhibitor, partial curve, poor fit].
In the case of CS(=O)(=O)N1C[C@@H]2CN(C(=O)CCn3cccn3)C[C@]2(C(=O)O)C1, the Potency is reported as inconclusive: 20 µM [inhibitor, full curve, poor fit].
COc1ccc(S(=O)(=O)NCC(c2ccc(N(C)C)cc2)N2CCCC2)cc1 (stereo not given) was tested, and the Potency was inconclusive: 44.7 µM [inhibitor, partial curve, poor fit].
In the case of COCc1n[nH]c(=S)n1-c1cccc2ccccc12, the Potency is reported as inconclusive: 56.2 µM [inhibitor, partial curve, poor fit].
c1ccc(-c2nnc3sc(-c4cc5ccccc5o4)nn23)cc1 was tested, and the Potency was “inactive”.
O=C(Nc1ccc(Cl)c(-c2nc3ncccc3o2)c1)c1cc2ccccc2o1 was tested, and the Potency was inconclusive: 44.7 µM [inhibitor, partial curve, poor fit].
With O=C(CCn1c(=O)oc2cc(S(=O)(=O)N3CCCC3)ccc21)Nc1ccc(F)c(F)c1 the Potency was inconclusive: 126 µM [inhibitor, single point].
In the case of Oc1c(Br)cc(Br)cc1C=Nc1ccc(F)c(Cl)c1, the Potency is reported as active: 4.47 µM.
With COc1ccc(C(=O)NCC(=O)OCC(=O)NC(=O)c2ccc(C(C)(C)C)cc2)cc1OC the Potency was “inactive”.
For COc1cccc(CNC(=O)c2oc3c(c2C)-c2nn(Cc4cccc(Cl)c4)cc2CC3)c1, the Potency was inconclusive: 22.4 µM [inhibitor, partial curve, poor fit].
In the case of O=C(Cn1ccn2nc(-c3ccccc3)c(CO)c2c1=O)NCc1ccccc1Cl, the Potency is reported as inconclusive: 44.7 µM [inhibitor, partial curve].
With C/C(=C\C(=O)c1ccc(C)cc1)Nc1cccc(O)c1 the Potency was “inactive”.
With Cc1cc(/C=C(/C#N)C(N)=O)c(C)cc1/C=C(/C#N)C(N)=O the Potency was inconclusive: 50.1 µM [inhibitor, partial curve, poor fit].
